Results as given in US8729017B2 (priority 2011, dated 2014).
At least one structure is not confirmed: it was looked up by name or label, or the drawing left a doubt.

Chains of the proteins cited; added tags and fusions are not shown. Residues count along the entry.
UniProt P43220, 24-463: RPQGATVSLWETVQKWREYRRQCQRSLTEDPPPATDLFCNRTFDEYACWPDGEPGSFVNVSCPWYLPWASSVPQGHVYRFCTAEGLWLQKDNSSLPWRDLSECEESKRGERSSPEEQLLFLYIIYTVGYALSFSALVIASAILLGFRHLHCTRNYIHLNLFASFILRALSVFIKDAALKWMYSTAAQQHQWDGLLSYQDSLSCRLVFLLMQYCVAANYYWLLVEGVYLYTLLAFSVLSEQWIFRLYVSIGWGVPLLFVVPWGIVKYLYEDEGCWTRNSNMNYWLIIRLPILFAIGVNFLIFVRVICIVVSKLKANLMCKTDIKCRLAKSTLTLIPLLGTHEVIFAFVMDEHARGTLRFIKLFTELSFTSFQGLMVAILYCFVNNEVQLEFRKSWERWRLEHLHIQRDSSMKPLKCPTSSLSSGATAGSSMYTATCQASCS
UniProt P47871, 26-477, species assumed: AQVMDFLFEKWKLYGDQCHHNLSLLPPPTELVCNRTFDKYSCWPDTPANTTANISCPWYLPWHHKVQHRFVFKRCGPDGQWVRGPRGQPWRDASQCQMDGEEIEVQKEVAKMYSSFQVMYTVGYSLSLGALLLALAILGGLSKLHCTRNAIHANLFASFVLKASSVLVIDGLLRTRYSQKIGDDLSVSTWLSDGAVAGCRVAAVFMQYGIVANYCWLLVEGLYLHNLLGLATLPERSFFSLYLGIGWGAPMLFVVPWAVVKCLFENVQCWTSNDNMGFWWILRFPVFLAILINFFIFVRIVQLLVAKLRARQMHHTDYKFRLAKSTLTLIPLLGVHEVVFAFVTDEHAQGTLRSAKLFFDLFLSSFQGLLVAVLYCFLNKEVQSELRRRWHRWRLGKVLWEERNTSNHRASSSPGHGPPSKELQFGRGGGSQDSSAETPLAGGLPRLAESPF

How the values were obtained:
[1] = biological target: T1, GLP-1 receptor (Homo sapiens, UniProt P43220); assay: cAMP induction, firefly luciferase reporter assay in HEK293 cells co-transfected with the GLP-1 receptor; format: cell-based; conditions: read-out: EC50 (nM) at GLP-1 receptor, cAMP-responsive luciferase reporter, 5 hours incubation
T1 construct: expressed in transfected cells; host or cells: HEK293
Method: (§1) The ability of each peptide to induce cAMP was measured in a firefly luciferase-based reporter assay. […] At the end of the incubation, 100 μL of LucLite luminescence substrate reagent (Perkin Elmer, Wellesley, Mass.) were added to each well. […] In some instances, the in vitro agonist activity at the GIP receptor was also tested.

[2] = biological target: T2, glucagon receptor (Homo sapiens, UniProt P47871); assay: cAMP induction, firefly luciferase reporter assay in HEK293 cells co-transfected with the glucagon receptor; format: cell-based; conditions: read-out: EC50 (nM) at glucagon receptor, cAMP-responsive luciferase reporter, 5 hours incubation
T2 construct: expressed in transfected cells; host or cells: HEK293
Method: as §1

**Q.** How did the EC50 [1] turn out when `CC(C)C[C@H](NC(=O)[C@H](CC(C)C)NC(=O)[C@H](Cc1c[nH]c2ccccc12)NC(=O)[C@H](CCC(N)=O)NC(=O)[C@@H](NC(=O)[C@H](Cc1ccccc1)NC(=O)[C@H](CC(=O)O)NC(=O)[C@H](CCC(N)=O)NC(=O)[C@H](C)NC(=O)[C@H](C)NC(=O)[C@H](CCCNC(=N)N)NC(=O)[C@H](CCC(=O)O)NC(=O)[C@H](CC(=O)O)NC(=O)[C@H](CC(C)C)NC(=O)[C@H](Cc1ccc(O)cc1)NC(=O)[C@H](CCCCN)NC(=O)[C@H](CO)NC(=O)[C@H](CCCCNC(=O)CN(CCN(CC(=O)O)CC(=O)O)CC(=O)O)NC(=O)[C@H](CC(=O)O)NC(=O)[C@H](CO)NC(=O)[C@@H](NC(=O)[C@H](Cc1ccccc1)NC(=O)[C@@H](NC(=O)CNC(=O)[C@H](CCC(N)=O)NC(=O)[C@@H](CO)NC(=O)[C@@H](N)Cc1c[nH]cn1)[C@@H](C)O)[C@@H](C)O)C(C)C)C(=O)N[C@@H](CC(=O)O)C(=O)NCC(=O)NCC(=O)N1CCC[C@H]1C(=O)N[C@@H](CO)C(=O)N[C@@H](CO)C(=O)NCC(=O)N[C@@H](C)C(=O)N1CCC[C@H]1C(=O)N1CCC[C@H]1C(=O)N1CCC[C@H]1C(=O)N[C@@H](CO)C(N)=O` [compound 55] was run?
**A.** 0.108 nM

**Q.** And the EC50 [2]?
**A.** 4.34 nM
